Earlier results as cited in US20090247475A1, “METHODS AND COMPOSITIONS RELATING TO PHARMACOGENETICS OF DIFFERENT GENE VARIANTS IN THE CONTEXT OF IRINOTECAN-BASED THERAPIES” (The Regents of the University of California, priority 2004, published 2009).
The name of at least one read-out is uncertain.

Conditions: patients treated with pravastatin; cited from earlier work

CC[C@H](C)C(=O)O[C@H]1C[C@H](O)C=C2C=C[C@H](C)[C@H](CC[C@@H](O)C[C@@H](O)CC(=O)O)[C@H]21 [pravastatin]
Effect of SLCO1B1*5 allele on pravastatin AUC: increased pravastatin AUC
